Experimental data from patent US9598714 (dated 2017).
Square brackets hold non-standard residues; d marks the D form. * marks the point of attachment. Gln(Trt) = N[C@@H](CCC(=O)NC(c1ccccc1)(c1ccccc1)c1ccccc1)C(=O)O; Pbf = Cc1c(C)c(S(=O)(=O)*)c(C)c2c1OC(C)(C)C2; Boc = CC(C)(C)OC(=O)*; OtBu = CC(C)(C)O*; tBu = CC(C)(C)*

Test: general procedure: peptide synthesis; Sieber resin (Xanthenyl linker, 0.5 mmol/gram); 2-chlorotrityl resin (1.0 mmol/gram); HBTU/HOBt/DiPEA; Alcalase-CLEA-OM for fragment condensation
Settings: coupling step

Point of comparison: “Ac-T(tBu)S(tBu)D(OtBu)LS(tBu)K(Boc)QME(OtBu)E(OtBu)E(OtBu)A-NH2”, step yield 98%. Against it:
- Ac-D(OtBu)LS(tBu)K(Boc)[Gln(Trt)]ME(OtBu)E(OtBu)E(OtBu)A-NH2 — lower, 86%
- Ac-Thr(tBu)-Phe-Thr(tBu)-Ser(tBu)-Asp(OtBu)-Leu-Ser(tBu)-Lys(Boc)-Gln-Met-Glu(OtBu)-Glu(OtBu)-Glu(OtBu)-Ala-NH2 — lower, 78%
- Ac-D(OtBu)LS(tBu)K(Boc)QME(OtBu)E(OtBu)E(OtBu)A-NH2 — higher, 100%
- Ac-LD(OtBu)[Gln(Trt)]S(tBu)QFVGS(tBu)R(Pbf)-NH2 — lower, 86%
